# Reference: the supplement of paper PMC8728848
# This is one part of the list.
# B1: EUL D1A second (Oryza sativa) (protein)
# chain: GAATACTIGGVPVHTVRVFSAAGEDYCLTVRNGTACLAPKNPRDDYQHWIKDMRHSNKIRDEEGYPAFALVNKVTGEAIKHSTGQGHPVKLVPYNPEYQDESVLWTESKDVGKGFRCIRMVNNIYLNFDAFHGDKDHGGIHDGTEIVLWKWCEGDNQRWKILPWILEQKLISEEDLNSAVDHHHHHH
# Columns and labels:
# Assay in all cases: glycan array binding signal (z-score within array); higher = stronger binding
# Details in all cases: glycan notation: IUPAC condensed, linker removed
# [1] = target: GlcNAc(b1-4)GlcNAc(b1-4)GlcNAc(b1-4)GlcNAc(b1-4)GlcNAc(b1-4)GlcNAc
# How it was run: (§1)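 The Consortium for Functional Glycomics database supplied 3228 glycan arrays, of which those lacking an available protein sequence were dropped. The binding signal, a within-array Z-score, was averaged across arrays of the same protein sequence and across linkers. Negative scores can be read as non-binding.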
# [2] = target: GlcNAc(b1-4)[GlcNAc(b1-6)]GalNAc
# How it was run: as §1
# [3] = target: GlcNAc(b1-6)Gal(b1-4)GlcNAc
# How it was run: as §1
# GlcNAc(b1-6)GalNAc = target: GlcNAc(b1-6)GalNAc
# How it was run: as §1
# [4] = target: GlcNAc6S(b1-3)Gal(b1-4)GlcNAc
# How it was run: as §1
# Kdn(a2-3)Gal(b1-3)GalNAc = target: Kdn(a2-3)Gal(b1-3)GalNAc
# How it was run: as §1
# Kdn(a2-3)Gal(b1-3)GlcNAc = target: Kdn(a2-3)Gal(b1-3)GlcNAc
# How it was run: as §1
# Kdn(a2-3)Gal(b1-4)Glc = target: Kdn(a2-3)Gal(b1-4)Glc
# How it was run: as §1
# Kdn(a2-3)Gal(b1-4)GlcNAc = target: Kdn(a2-3)Gal(b1-4)GlcNAc
# How it was run: as §1
# [5] = target: Kdn(a2-3)Gal(b1-4)[Fuc(a1-3)]GlcNAc
# How it was run: as §1
# Kdn(a2-6)Gal(b1-4)GlcNAc = target: Kdn(a2-6)Gal(b1-4)GlcNAc
# How it was run: as §1
# [6] = target: Man(a1-2)Man(a1-2)Man(a1-3)Man
# How it was run: as §1
# [7] = target: Man(a1-2)Man(a1-2)Man(a1-6)[Man(a1-3)]Man
# How it was run: as §1
# Man(a1-2)Man(a1-3)Man = target: Man(a1-2)Man(a1-3)Man
# How it was run: as §1
# [8] = target: Man(a1-2)Man(a1-3)[Man(a1-2)Man(a1-6)]Man
# How it was run: as §1
# [9] = target: Man(a1-2)Man(a1-3)[Man(a1-2)Man(a1-6)]Man(a1-6)[Man(a1-2)Man(a1-2)Man(a1-3)]Man
# How it was run: as §1
# [10] = target: Man(a1-2)Man(a1-3)[Man(a1-2)Man(a1-6)]Man(a1-6)[Man(a1-2)Man(a1-2)Man(a1-3)]Man(b1-4)GlcNAc(b1-4)GlcNAc
# How it was run: as §1
# [11] = target: Man(a1-2)Man(a1-3)[Man(a1-6)]Man(a1-6)[Man(a1-2)Man(a1-3)]Man(b1-4)GlcNAc(b1-4)GlcNAc
# How it was run: as §1
# [12] = target: Man(a1-2)Man(a1-6)[Man(a1-3)]Man(a1-6)[Man(a1-2)Man(a1-2)Man(a1-3)]Man
# How it was run: as §1
# [13] = target: Man(a1-2)Man(a1-6)[Man(a1-3)]Man(a1-6)[Man(a1-2)Man(a1-2)Man(a1-3)]Man(b1-4)GlcNAc(b1-4)GlcNAc
# How it was run: as §1
# Man(a1-3)[Man(a1-6)]Man = target: Man(a1-3)[Man(a1-6)]Man
# How it was run: as §1
# [14] = target: Man(a1-3)[Man(a1-6)]Man(a1-6)[Man(a1-2)Man(a1-3)]Man(b1-4)GlcNAc(b1-4)GlcNAc
# How it was run: as §1
# [15] = target: Man(a1-3)[Man(a1-6)]Man(a1-6)[Man(a1-3)]Man
# How it was run: as §1
# [16] = target: Man(a1-3)[Man(a1-6)]Man(a1-6)[Man(a1-3)]Man(b1-4)GlcNAc(b1-4)GlcNAc
# How it was run: as §1
# [17] = target: Man(a1-3)[Man(a1-6)]Man(b1-4)GlcNAc(b1-4)GlcNAc
# How it was run: as §1
# [18] = target: Man(a1-3)[Man(a1-6)]Man(b1-4)GlcNAc(b1-4)[Fuc(a1-6)]GlcNAc
# How it was run: as §1
# Man(a1-6)Man = target: Man(a1-6)Man
# How it was run: as §1
# Man(b1-4)GlcNAc = target: Man(b1-4)GlcNAc
# How it was run: as §1
# MurNAc(b1-4)GlcNAc = target: MurNAc(b1-4)GlcNAc
# How it was run: as §1
# Neu5Ac(a2-3)Gal = target: Neu5Ac(a2-3)Gal
# How it was run: as §1
# [19] = target: Neu5Ac(a2-3)Gal(b1-3)GalNAc
# How it was run: as §1
# [20] = target: Neu5Ac(a2-3)Gal(b1-3)GalNAc(b1-3)Gal(a1-4)Gal(b1-4)Glc
# How it was run: as §1
# [21] = target: Neu5Ac(a2-3)Gal(b1-3)GalNAc(b1-4)Gal(b1-4)Glc
# How it was run: as §1
# [22] = target: Neu5Ac(a2-3)Gal(b1-3)GalNAc(b1-4)[Neu5Ac(a2-3)]Gal(b1-4)Glc
# How it was run: as §1
# [23] = target: Neu5Ac(a2-3)Gal(b1-3)GalNAc(b1-4)[Neu5Ac(a2-8)Neu5Ac(a2-3)]Gal(b1-4)Glc
# How it was run: as §1
# [24] = target: Neu5Ac(a2-3)Gal(b1-3)GalNAc6S
# How it was run: as §1
# [25] = target: Neu5Ac(a2-3)Gal(b1-3)GlcNAc
# How it was run: as §1
# [26] = target: Neu5Ac(a2-3)Gal(b1-3)GlcNAc(b1-2)Man
# How it was run: as §1
# [27] = target: Neu5Ac(a2-3)Gal(b1-3)GlcNAc(b1-2)Man(a1-3)[GlcNAc(b1-4)][Neu5Ac(a2-3)Gal(b1-3)GlcNAc(b1-2)Man(a1-6)]Man(b1-4)GlcNAc(b1-4)GlcNAc
# How it was run: as §1
# [28] = target: Neu5Ac(a2-3)Gal(b1-3)GlcNAc(b1-2)Man(a1-3)[Neu5Ac(a2-3)Gal(b1-3)GlcNAc(b1-2)Man(a1-6)]Man(b1-4)GlcNAc(b1-4)GlcNAc
# How it was run: as §1
# [29] = target: Neu5Ac(a2-3)Gal(b1-3)GlcNAc(b1-2)[Neu5Ac(a2-3)Gal(b1-3)GlcNAc(b1-4)]Man(a1-6)[Neu5Ac(a2-3)Gal(b1-3)GlcNAc(b1-2)Man(a1-3)]Man(b1-4)GlcNAc(b1-4)GlcNAc
# How it was run: as §1
# [30] = target: Neu5Ac(a2-3)Gal(b1-3)GlcNAc(b1-3)Gal(b1-3)GlcNAc
# How it was run: as §1
# [31] = target: Neu5Ac(a2-3)Gal(b1-3)GlcNAc(b1-3)Gal(b1-4)GlcNAc
# How it was run: as §1
# [32] = target: Neu5Ac(a2-3)Gal(b1-3)GlcNAc(b1-3)GalNAc
# How it was run: as §1
# [33] = target: Neu5Ac(a2-3)Gal(b1-3)GlcNAc(b1-6)GalNAc
# How it was run: as §1
binder,measurement,setting,value
B1,glycan array binding signal (z-score),[1],0.278
same,glycan array binding signal (z-score),[2],-0.443
same,glycan array binding signal (z-score),[3],0.582
same,glycan array binding signal (z-score),GlcNAc(b1-6)GalNAc,0.18
same,glycan array binding signal (z-score),[4],-0.146
same,glycan array binding signal (z-score),Kdn(a2-3)Gal(b1-3)GalNAc,0.8
same,glycan array binding signal (z-score),Kdn(a2-3)Gal(b1-3)GlcNAc,-0.321
same,glycan array binding signal (z-score),Kdn(a2-3)Gal(b1-4)Glc,-0.642
same,glycan array binding signal (z-score),Kdn(a2-3)Gal(b1-4)GlcNAc,1.56
same,glycan array binding signal (z-score),[5],0.269
same,glycan array binding signal (z-score),Kdn(a2-6)Gal(b1-4)GlcNAc,-1.38
same,glycan array binding signal (z-score),[6],0.075
same,glycan array binding signal (z-score),[7],-0.112
same,glycan array binding signal (z-score),Man(a1-2)Man(a1-3)Man,-0.866
same,glycan array binding signal (z-score),[8],-1.75
same,glycan array binding signal (z-score),[9],-0.985
same,glycan array binding signal (z-score),[10],1.93
same,glycan array binding signal (z-score),[11],-0.104
same,glycan array binding signal (z-score),[12],0.706
same,glycan array binding signal (z-score),[13],-0.175
same,glycan array binding signal (z-score),Man(a1-3)[Man(a1-6)]Man,-1.19
same,glycan array binding signal (z-score),[14],-0.941
same,glycan array binding signal (z-score),[15],-0.871
same,glycan array binding signal (z-score),[16],0.115
same,glycan array binding signal (z-score),[17],-0.971
same,glycan array binding signal (z-score),[18],0.718
same,glycan array binding signal (z-score),Man(a1-6)Man,-0.62
same,glycan array binding signal (z-score),Man(b1-4)GlcNAc,-0.316
same,glycan array binding signal (z-score),MurNAc(b1-4)GlcNAc,-0.391
same,glycan array binding signal (z-score),Neu5Ac(a2-3)Gal,-0.835
same,glycan array binding signal (z-score),[19],0.973
same,glycan array binding signal (z-score),[20],-0.441
same,glycan array binding signal (z-score),[21],-1.04
same,glycan array binding signal (z-score),[22],1.45
same,glycan array binding signal (z-score),[23],1.87
same,glycan array binding signal (z-score),[24],0.821
same,glycan array binding signal (z-score),[25],-0.337
same,glycan array binding signal (z-score),[26],3.06
same,glycan array binding signal (z-score),[27],-2.14
same,glycan array binding signal (z-score),[28],0.852
same,glycan array binding signal (z-score),[29],0.413
same,glycan array binding signal (z-score),[30],-0.077
same,glycan array binding signal (z-score),[31],-1.25
same,glycan array binding signal (z-score),[32],1.2
same,glycan array binding signal (z-score),[33],-0.587

# In another format: results already given
binder	measurement	setting	value
B1	glycan array binding signal (z-score)	[9]	-0.985
same	glycan array binding signal (z-score)	[12]	0.706
